# Results published in the supplement of paper PMC8728848.
# This is one part of the list.
# B1: Sp8391B-bot-388-20-388 (Bacteroides ovatus) (protein)
# chain: GCQNNDENEQHYDNKLFISASNFTKEILFKAGDTNVETGLSVAIAKPEEHDIKVTMSPAPELLSTYKLAYYDETAVLLSEEHYSMPETSTTIKSGSIVSPELPIEFINTGELDIKTTYVLPVTIKSVEGIGVLQSAKTYYYVFRGASLINVVCNISRNRAYPDFKNDSKFNNLTENTMEILFKANSFPNTLNTLMGIESNYLLRIGDATIPNNQLQVATSVNNCTSADLQLESGKWYHVAVAFNKGNVKVYINGVEKLSGSTGKSSVSLGAKHTNEEDGSRCFWVGYSYKDDRYFDGVVSEVRIWNRALTAEEIQATNHFYTIEPESEGLIAYWKFDEGSGTVAKDYSVSGYDLTIEKEPKWESVSLPQ
# Tests used:
# Assay in all cases: glycan array binding signal (z-score within array); higher = stronger binding
# Settings in all cases: glycan notation: IUPAC condensed, linker removed
# [1] = biological target: Neu5Ac(a2-3)Gal(b1-4)GlcNAc(b1-3)Gal(b1-4)GlcNAc(b1-3)Gal(b1-4)GlcNAc
# Outline: (§1)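 Columns mapping to the same glycan were averaged after glycan names were converted to IUPAC-condensed notation. The data come from 3228 arrays in the Consortium for Functional Glycomics database, limited to those with an available protein sequence. Binding is reported as a within-array Z-score averaged across arrays of one protein sequence and across linkers.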
# [2] = biological target: Neu5Ac(a2-3)Gal(b1-4)GlcNAc(b1-3)Gal(b1-4)GlcNAc(b1-3)Gal(b1-4)GlcNAc(b1-2)Man(a1-3)[Neu5Ac(a2-3)Gal(b1-4)GlcNAc(b1-3)Gal(b1-4)GlcNAc(b1-3)Gal(b1-4)GlcNAc(b1-2)Man(a1-6)]GalNAc
# Outline: as §1
# [3] = biological target: Neu5Ac(a2-3)Gal(b1-4)GlcNAc(b1-3)Gal(b1-4)GlcNAc(b1-3)GalNAc
# Outline: as §1
# [4] = biological target: Neu5Ac(a2-3)Gal(b1-4)GlcNAc(b1-3)Gal(b1-4)GlcNAc(b1-3)[Neu5Ac(a2-3)Gal(b1-4)GlcNAc(b1-3)Gal(b1-4)GlcNAc(b1-6)]GalNAc
# Outline: as §1
# [5] = biological target: Neu5Ac(a2-3)Gal(b1-4)GlcNAc(b1-3)Gal(b1-4)GlcNAc(b1-6)[Gal(b1-3)]GalNAc
# Outline: as §1
# [6] = biological target: Neu5Ac(a2-3)Gal(b1-4)GlcNAc(b1-3)Gal(b1-4)[Fuc(a1-3)]GlcNAc
# Outline: as §1
# [7] = biological target: Neu5Ac(a2-3)Gal(b1-4)GlcNAc(b1-3)GalNAc
# Outline: as §1
# [8] = biological target: Neu5Ac(a2-3)Gal(b1-4)GlcNAc(b1-3)[Neu5Ac(a2-3)Gal(b1-4)GlcNAc(b1-6)]GalNAc
# Outline: as §1
# [9] = biological target: Neu5Ac(a2-3)Gal(b1-4)GlcNAc(b1-6)GalNAc
# Outline: as §1
# [10] = biological target: Neu5Ac(a2-3)Gal(b1-4)GlcNAc(b1-6)[Gal(b1-3)]GalNAc
# Outline: as §1
# [11] = biological target: Neu5Ac(a2-3)Gal(b1-4)GlcNAc(b1-6)[Neu5Ac(a2-3)Gal(b1-3)]GalNAc
# Outline: as §1
# [12] = biological target: Neu5Ac(a2-3)Gal(b1-4)GlcNAc6S
# Outline: as §1
# [13] = biological target: Neu5Ac(a2-3)Gal(b1-4)[Fuc(a1-3)]GlcNAc
# Outline: as §1
# [14] = biological target: Neu5Ac(a2-3)Gal(b1-4)[Fuc(a1-3)]GlcNAc(b1-2)Man
# Outline: as §1
# [15] = biological target: Neu5Ac(a2-3)Gal(b1-4)[Fuc(a1-3)]GlcNAc(b1-3)Gal
# Outline: as §1
# [16] = biological target: Neu5Ac(a2-3)Gal(b1-4)[Fuc(a1-3)]GlcNAc(b1-3)Gal(b1-4)GlcNAc
# Outline: as §1
# [17] = biological target: Neu5Ac(a2-3)Gal(b1-4)[Fuc(a1-3)]GlcNAc(b1-3)Gal(b1-4)[Fuc(a1-3)]GlcNAc(b1-3)Gal(b1-4)[Fuc(a1-3)]GlcNAc
# Outline: as §1
# [18] = biological target: Neu5Ac(a2-3)Gal(b1-4)[Fuc(a1-3)]GlcNAc(b1-3)GalNAc
# Outline: as §1
# [19] = biological target: Neu5Ac(a2-3)Gal(b1-4)[Fuc(a1-3)]GlcNAc(b1-6)[Gal(b1-3)]GalNAc
# Outline: as §1
# [20] = biological target: Neu5Ac(a2-3)Gal(b1-4)[Fuc(a1-3)]GlcNAc(b1-6)[Neu5Ac(a2-3)Gal(b1-3)]GalNAc
# Outline: as §1
# [21] = biological target: Neu5Ac(a2-3)Gal(b1-4)[Fuc(a1-3)]GlcNAc6S
# Outline: as §1
# [22] = biological target: Neu5Ac(a2-3)Gal6S(b1-4)GlcNAc
# Outline: as §1
# [23] = biological target: Neu5Ac(a2-3)Gal6S(b1-4)[Fuc(a1-3)]GlcNAc
# Outline: as §1
# Neu5Ac(a2-3)GalNAc = biological target: Neu5Ac(a2-3)GalNAc
# Outline: as §1
# [24] = biological target: Neu5Ac(a2-3)GalNAc(b1-4)GlcNAc
# Outline: as §1
# [25] = biological target: Neu5Ac(a2-3)[GalNAc(b1-4)]Gal(b1-4)Glc
# Outline: as §1
# [26] = biological target: Neu5Ac(a2-3)[GalNAc(b1-4)]Gal(b1-4)GlcNAc
# Outline: as §1
# [27] = biological target: Neu5Ac(a2-3)[GalNAc(b1-4)]Gal(b1-4)GlcNAc(b1-3)GalNAc
# Outline: as §1
# [28] = biological target: Neu5Ac(a2-3)[Neu5Ac(a2-6)]GalNAc
# Outline: as §1
# Neu5Ac(a2-6)Gal = biological target: Neu5Ac(a2-6)Gal
# Outline: as §1
# [29] = biological target: Neu5Ac(a2-6)Gal(b1-3)GlcNAc(b1-3)[Gal(b1-4)GlcNAc(b1-6)]Gal(b1-4)Glc
# Outline: as §1
# Neu5Ac(a2-6)Gal(b1-4)Glc = biological target: Neu5Ac(a2-6)Gal(b1-4)Glc
# Outline: as §1
# [30] = biological target: Neu5Ac(a2-6)Gal(b1-4)GlcNAc
# Outline: as §1
# [31] = biological target: Neu5Ac(a2-6)Gal(b1-4)GlcNAc(b1-2)Man
# Outline: as §1
# [32] = biological target: Neu5Ac(a2-6)Gal(b1-4)GlcNAc(b1-2)Man(a1-3)Man(b1-4)GlcNAc(b1-4)GlcNAc
# Outline: as §1
# [33] = biological target: Neu5Ac(a2-6)Gal(b1-4)GlcNAc(b1-2)Man(a1-3)[Gal(b1-4)GlcNAc(b1-2)Man(a1-6)]Man(b1-4)GlcNAc(b1-4)GlcNAc
# Outline: as §1
# [34] = biological target: Neu5Ac(a2-6)Gal(b1-4)GlcNAc(b1-2)Man(a1-3)[GlcNAc(b1-2)Man(a1-6)]Man(b1-4)GlcNAc(b1-4)GlcNAc
# Outline: as §1
# [35] = biological target: Neu5Ac(a2-6)Gal(b1-4)GlcNAc(b1-2)Man(a1-3)[GlcNAc(b1-4)][Neu5Ac(a2-6)Gal(b1-4)GlcNAc(b1-2)Man(a1-6)]Man(b1-4)GlcNAc(b1-4)GlcNAc
# Outline: as §1
binder,measurement,setting,value
B1,glycan array binding signal (z-score),[1],-0.525
same,glycan array binding signal (z-score),[2],1.33
same,glycan array binding signal (z-score),[3],-0.096
same,glycan array binding signal (z-score),[4],1.19
same,glycan array binding signal (z-score),[5],1.14
same,glycan array binding signal (z-score),[6],0.229
same,glycan array binding signal (z-score),[7],-0.435
same,glycan array binding signal (z-score),[8],0.693
same,glycan array binding signal (z-score),[9],1.31
same,glycan array binding signal (z-score),[10],0.353
same,glycan array binding signal (z-score),[11],-0.62
same,glycan array binding signal (z-score),[12],-1.13
same,glycan array binding signal (z-score),[13],-0.693
same,glycan array binding signal (z-score),[14],-0.692
same,glycan array binding signal (z-score),[15],-0.21
same,glycan array binding signal (z-score),[16],1.29
same,glycan array binding signal (z-score),[17],-0.058
same,glycan array binding signal (z-score),[18],1.02
same,glycan array binding signal (z-score),[19],-0.244
same,glycan array binding signal (z-score),[20],0.854
same,glycan array binding signal (z-score),[21],-0.908
same,glycan array binding signal (z-score),[22],-0.501
same,glycan array binding signal (z-score),[23],-0.357
same,glycan array binding signal (z-score),Neu5Ac(a2-3)GalNAc,0.163
same,glycan array binding signal (z-score),[24],-0.763
same,glycan array binding signal (z-score),[25],0.131
same,glycan array binding signal (z-score),[26],-0.664
same,glycan array binding signal (z-score),[27],-0.113
same,glycan array binding signal (z-score),[28],-0.561
same,glycan array binding signal (z-score),Neu5Ac(a2-6)Gal,-0.089
same,glycan array binding signal (z-score),[29],6.14
same,glycan array binding signal (z-score),Neu5Ac(a2-6)Gal(b1-4)Glc,-0.12
same,glycan array binding signal (z-score),[30],-0.355
same,glycan array binding signal (z-score),[31],0.49
same,glycan array binding signal (z-score),[32],-0.505
same,glycan array binding signal (z-score),[33],-0.496
same,glycan array binding signal (z-score),[34],-0.61
same,glycan array binding signal (z-score),[35],0.048

# Another view of some results above.
binder	measurement	setting	value
B1	glycan array binding signal (z-score)	[8]	0.693
same	glycan array binding signal (z-score)	[34]	-0.61
